Assay results from paper PMC9233733.
These are yes or no findings as the source states them, for the method shown. A result given as binding can be weak or reduced; the word gives no strength.

T1: Nup85 (Xenopus laevis (endogenous in oocytes)) (UniProt Q68FJ0)
T1 sequence: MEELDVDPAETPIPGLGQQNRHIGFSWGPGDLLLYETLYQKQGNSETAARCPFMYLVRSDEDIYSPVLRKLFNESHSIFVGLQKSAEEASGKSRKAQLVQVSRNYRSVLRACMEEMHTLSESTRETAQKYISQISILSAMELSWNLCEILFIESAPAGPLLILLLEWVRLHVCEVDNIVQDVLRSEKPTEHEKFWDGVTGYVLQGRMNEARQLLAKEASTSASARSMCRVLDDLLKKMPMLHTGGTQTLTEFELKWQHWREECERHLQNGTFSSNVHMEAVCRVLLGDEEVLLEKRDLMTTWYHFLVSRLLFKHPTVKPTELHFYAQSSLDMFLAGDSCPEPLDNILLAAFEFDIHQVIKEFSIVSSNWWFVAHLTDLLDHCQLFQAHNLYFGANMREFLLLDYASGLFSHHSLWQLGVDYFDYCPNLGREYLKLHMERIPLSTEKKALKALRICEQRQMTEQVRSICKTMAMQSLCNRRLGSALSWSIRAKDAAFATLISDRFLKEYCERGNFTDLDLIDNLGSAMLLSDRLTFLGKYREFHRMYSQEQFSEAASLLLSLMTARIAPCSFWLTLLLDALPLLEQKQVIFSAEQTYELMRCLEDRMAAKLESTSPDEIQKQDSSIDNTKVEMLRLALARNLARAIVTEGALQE

T2: Nup93 (Xenopus laevis (endogenous in oocytes)) (UniProt Q7ZX96)
T2 sequence: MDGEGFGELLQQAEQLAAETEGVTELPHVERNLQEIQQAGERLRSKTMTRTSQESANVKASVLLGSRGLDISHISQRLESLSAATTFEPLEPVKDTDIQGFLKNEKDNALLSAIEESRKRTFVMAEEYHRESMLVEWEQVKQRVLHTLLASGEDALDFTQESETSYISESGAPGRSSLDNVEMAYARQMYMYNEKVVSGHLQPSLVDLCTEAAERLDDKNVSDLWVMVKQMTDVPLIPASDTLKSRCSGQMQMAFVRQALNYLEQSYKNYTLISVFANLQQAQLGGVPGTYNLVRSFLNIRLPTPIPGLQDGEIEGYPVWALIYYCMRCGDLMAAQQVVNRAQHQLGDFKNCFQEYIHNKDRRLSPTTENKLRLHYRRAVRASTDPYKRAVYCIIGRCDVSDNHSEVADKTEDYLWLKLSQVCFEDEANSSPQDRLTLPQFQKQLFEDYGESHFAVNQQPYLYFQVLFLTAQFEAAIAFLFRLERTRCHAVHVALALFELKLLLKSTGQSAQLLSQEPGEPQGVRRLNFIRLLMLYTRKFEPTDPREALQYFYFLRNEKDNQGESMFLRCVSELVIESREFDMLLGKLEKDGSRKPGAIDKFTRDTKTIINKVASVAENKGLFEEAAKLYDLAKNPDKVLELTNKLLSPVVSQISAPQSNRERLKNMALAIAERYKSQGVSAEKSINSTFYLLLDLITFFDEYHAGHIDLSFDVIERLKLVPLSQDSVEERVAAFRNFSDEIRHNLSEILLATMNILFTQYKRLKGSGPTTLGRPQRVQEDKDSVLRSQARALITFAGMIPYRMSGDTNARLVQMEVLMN


Key:
[1] = molecular target: T1, Nup85 (Xenopus laevis (endogenous in oocytes)); assay: cryo-EM structure; nuclear ring (NR) subunit of NPCs in the X. laevis oocyte nuclear envelope spread on the grid in HEPES buffer (83 mmol/L KCl, 17 mmol/L NaCl, 10 mmol/L HEPES, pH 7.5), cross-linked with 0.15% glutaraldehyde; single particle analysis, maps at 8.1 Å (subunit), 7.8 Å (core), 8.6 Å (Nup133 region); AlphaFold2 models fitted by MDFF
[2] = molecular target: T1, Nup85 (Xenopus laevis (endogenous in oocytes)); assay: cryo-EM structure; cytoplasmic ring (CR) subunit of NPCs in the X. laevis oocyte nuclear envelope spread on the grid in HEPES buffer (83 mmol/L KCl, 17 mmol/L NaCl, 10 mmol/L HEPES, pH 7.5), cross-linked with 0.15% glutaraldehyde; single particle analysis, maps at 8.7 Å (subunit), 8 Å (core), 8.9 Å (Nup358 region); AlphaFold2 models fitted by MDFF
[3] = molecular target: T2, Nup93 (Xenopus laevis (endogenous in oocytes)); assay: as above
[4] = molecular target: Nup107 (Xenopus laevis (endogenous in oocytes)); assay: cryo-EM structure; nuclear ring (NR) subunit of NPCs in the X. laevis oocyte nuclear envelope spread on the grid in HEPES buffer (83 mmol/L KCl, 17 mmol/L NaCl, 10 mmol/L HEPES, pH 7.5), cross-linked with 0.15% glutaraldehyde; single particle analysis, maps at 8.1 Å (subunit), 7.8 Å (core), 8.6 Å (Nup133 region); AlphaFold2 models fitted by MDFF
[5] = molecular target: Nup96 (Xenopus laevis (endogenous in oocytes)); assay: as above
[6] = molecular target: Nup107 (Xenopus laevis (endogenous in oocytes)); assay: cryo-EM structure; cytoplasmic ring (CR) subunit of NPCs in the X. laevis oocyte nuclear envelope spread on the grid in HEPES buffer (83 mmol/L KCl, 17 mmol/L NaCl, 10 mmol/L HEPES, pH 7.5), cross-linked with 0.15% glutaraldehyde; single particle analysis, maps at 8.7 Å (subunit), 8 Å (core), 8.9 Å (Nup358 region); AlphaFold2 models fitted by MDFF
[7] = molecular target: Nup96 (Xenopus laevis (endogenous in oocytes)); assay: as above
[8] = molecular target: Sec13 (Xenopus laevis (endogenous in oocytes)); assay: as above

Row | binding [1] | binding [2] | binding [5] | binding [7] | Molecule | other results
1 | binds | binds | – | – | Nup205 (Xenopus laevis (endogenous in oocytes)) | –
2 | – | – | – | – | Nup358 (Xenopus laevis (endogenous in oocytes)) | binding [3]: binds
3 | binds | – | – | – | Nup107 (Xenopus laevis (endogenous in oocytes)) | –
4 | – | binds | – | – | Nup88 (Xenopus laevis (endogenous in oocytes)) | –
5 | – | – | binds | binds | Nup93 (protein, UniProt Q7ZX96 1-820) MDGEGFGELLQQAEQLAAETEGVTELPHVERNLQEIQQAGERLRSKTMTRTSQESANVKASVLLGSRGLDISHISQRLESLSAATTFEPLEPVKDTDIQGFLKNEKDNALLSAIEESRKRTFVMAEEYHRESMLVEWEQVKQRVLHTLLASGEDALDFTQESETSYISESGAPGRSSLDNVEMAYARQMYMYNEKVVSGHLQPSLVDLCTEAAERLDDKNVSDLWVMVKQMTDVPLIPASDTLKSRCSGQMQMAFVRQALNYLEQSYKNYTLISVFANLQQAQLGGVPGTYNLVRSFLNIRLPTPIPGLQDGEIEGYPVWALIYYCMRCGDLMAAQQVVNRAQHQLGDFKNCFQEYIHNKDRRLSPTTENKLRLHYRRAVRASTDPYKRAVYCIIGRCDVSDNHSEVADKTEDYLWLKLSQVCFEDEANSSPQDRLTLPQFQKQLFEDYGESHFAVNQQPYLYFQVLFLTAQFEAAIAFLFRLERTRCHAVHVALALFELKLLLKSTGQSAQLLSQEPGEPQGVRRLNFIRLLMLYTRKFEPTDPREALQYFYFLRNEKDNQGESMFLRCVSELVIESREFDMLLGKLEKDGSRKPGAIDKFTRDTKTIINKVASVAENKGLFEEAAKLYDLAKNPDKVLELTNKLLSPVVSQISAPQSNRERLKNMALAIAERYKSQGVSAEKSINSTFYLLLDLITFFDEYHAGHIDLSFDVIERLKLVPLSQDSVEERVAAFRNFSDEIRHNLSEILLATMNILFTQYKRLKGSGPTTLGRPQRVQEDKDSVLRSQARALITFAGMIPYRMSGDTNARLVQMEVLMN | binding [4]: binds; binding [6]: binds; binding [8]: binds
6 | – | – | binds | binds | Nup85 (protein, UniProt Q68FJ0 1-653) MEELDVDPAETPIPGLGQQNRHIGFSWGPGDLLLYETLYQKQGNSETAARCPFMYLVRSDEDIYSPVLRKLFNESHSIFVGLQKSAEEASGKSRKAQLVQVSRNYRSVLRACMEEMHTLSESTRETAQKYISQISILSAMELSWNLCEILFIESAPAGPLLILLLEWVRLHVCEVDNIVQDVLRSEKPTEHEKFWDGVTGYVLQGRMNEARQLLAKEASTSASARSMCRVLDDLLKKMPMLHTGGTQTLTEFELKWQHWREECERHLQNGTFSSNVHMEAVCRVLLGDEEVLLEKRDLMTTWYHFLVSRLLFKHPTVKPTELHFYAQSSLDMFLAGDSCPEPLDNILLAAFEFDIHQVIKEFSIVSSNWWFVAHLTDLLDHCQLFQAHNLYFGANMREFLLLDYASGLFSHHSLWQLGVDYFDYCPNLGREYLKLHMERIPLSTEKKALKALRICEQRQMTEQVRSICKTMAMQSLCNRRLGSALSWSIRAKDAAFATLISDRFLKEYCERGNFTDLDLIDNLGSAMLLSDRLTFLGKYREFHRMYSQEQFSEAASLLLSLMTARIAPCSFWLTLLLDALPLLEQKQVIFSAEQTYELMRCLEDRMAAKLESTSPDEIQKQDSSIDNTKVEMLRLALARNLARAIVTEGALQE | –
